Measured values from PubChem BioAssay AID330 (DTP/NCI, 2004).
The list is a part of this screen's results and no random one: it is rich in T/C values a quarter to a half above the control, in often repeated tests (any T/C) and in doses without a T/C. Further doses and runs are listed elsewhere. T/C gives the treated animals as a percentage of the vehicle group. Some doses have a count of surviving animals in place of a T/C: the source holds a T/C of zero for them, seemingly a mark for toxic or unscored doses. Some doses without a T/C left all or most animals alive at the check, yet need not have been tolerated: survival well below the control is almost never listed, so the zero probably covers shortened survival too. Survivors were counted at the toxicity check, usually on the fifth day, unless a day is given; later deaths do not show. Schedule codes are those of the source, taken here to give the interval after Q, in days (D) or hours (H), and the number of doses after X. Some entries hold several experiments; the values are given in rising order. For survival time, this PubChem deposit counts one and a half times the control or more as active, and values a quarter to a half above the control carry no call in these data; other NCI protocols may use other cut-offs. Some T/C values carry the count of animals alive at the toxicity check (mostly the fifth day); where none is given, no animal had died by that day.

System: P388 leukemia ip, CD2F1 mice, survival T/C
Assay: NCI In Vivo Anticancer Drug Screen. Data for tumor model P388 Leukemia (intraperitoneal) in CD2F1 (CDF1) mice
Settings: T/C endpoint: median survival time, higher T/C = longer survival
[1] = dose: 100.0 mg/kg/injection, schedule: Q01DX005 (ip), vehicle: Klucel (hydroxypropylcellulose) (HPC)
[2] = dose: 200.0 mg/kg/injection, schedule: Q01DX005 (ip), vehicle: Klucel (hydroxypropylcellulose) (HPC)
[3] = dose: 200.0 mg/kg/injection, schedule: Q01DX009 (ip), vehicle: saline with Tween-80
[4] = dose: 400.0 mg/kg/injection, schedule: Q04DX002 (ip), vehicle: saline with Tween-80
[5] = dose: 120.0 mg/kg/injection, schedule: Q01DX005 (ip), vehicle: saline with Tween-80
[6] = dose: 120.0 mg/kg/injection, schedule: Q01DX005 (ip), vehicle: saline
[7] = dose: 240.0 mg/kg/injection, schedule: Q01DX005 (ip), vehicle: saline
[8] = dose: 400.0 mg/kg/injection, schedule: Q01DX009 (ip), vehicle: saline with Tween-80
[9] = dose: 100.0 mg/kg/injection, schedule: Q01DX005 (ip), vehicle: saline with Tween-80
[10] = dose: 200.0 mg/kg/injection, schedule: Q01DX005 (ip), vehicle: saline with Tween-80
[11] = dose: 60.0 mg/kg/injection, schedule: Q01DX005 (ip), vehicle: saline with Tween-80

C[CH2][Sn]([CH2]C)([O]C(=O)c1ccc2c(c1)OC(C)(C)O2)[O]C(=O)c1ccc2c(c1)OC(C)(C)O2
T/C (dose: 50.0 mg/kg/injection, schedule: Q01DX005 (ip), vehicle: Klucel (hydroxypropylcellulose) (HPC)): 136 % of control
survivor count [1]: 0 of 6
survivor count [2]: 0 of 6

Cc1nc(Nc2ccc(F)cc2)c2c(-c3ccccc3)c[nH]c2n1
survivor count [2]: 6 of 6

C1=NCc2ccsc2-n2cccc21
survivor count [1]: 0 of 6
survivor count [2]: 0 of 6

Cc1c(-c2ccccc2)ccnc1/C=N/NC(=S)NCCc1ccccc1
T/C (dose: 12.5 mg/kg/injection, schedule: Q01DX009 (ip), vehicle: saline with Tween-80): 130 % of control [5 of 6 alive]
T/C (dose: 25.0 mg/kg/injection, schedule: Q01DX009 (ip), vehicle: saline with Tween-80): 131 % of control
T/C (dose: 50.0 mg/kg/injection, schedule: Q01DX009 (ip), vehicle: saline with Tween-80): 141 and 144 % of control
survivor count [3]: 4 of 6

CC(=O)/C=N/OC(=O)c1ccccc1
survivor count [4]: 1 of 6

C=c1cc2c(cc1=C)C(=O)c1ccccc1C2=O
survivor count [5]: 6 of 6

CNC(C)C#N (configuration not stated)
survivor count (dose: 60.0 mg/kg/injection, schedule: Q01DX005 (ip), vehicle: saline): 0 of 6
survivor count [6]: 0 of 6
survivor count [7]: 0 of 6

CN(Cc1ccccc1)C(=O)C(=O)c1c[nH]c2ccccc12
survivor count [8]: 6 of 6

COc1cc(NC(C)=O)c(OC)c2c(Cl)ccnc12
survivor count (dose: 400.0 mg/kg/injection, schedule: Q01DX001 (ip), vehicle: acid diluted with saline): 0 of 6

CC1=CC(=Nc2cc(Br)c(O)c(Br)c2)C=CC1=O
survivor count (dose: 50.0 mg/kg/injection, schedule: Q01DX005 (ip), vehicle: saline with Tween-80): 4 of 5
survivor count [9]: 0 of 5
survivor count [10]: 0 of 5

COc1cc2c(c(OC)c1OC)-c1ccc(OC)c(=O)cc1C([N+](C)(C)C)CC2 (configuration not stated)
survivor count (dose: 40.0 mg/kg/injection, schedule: Q01DX009 (ip), vehicle: Klucel (hydroxypropylcellulose) (HPC)): 3 of 6

CC(=O)Nc1nccs1.CC(=O)Nc1nccs1.[Cl][Pt][Cl]
survivor count [4]: 1 of 6

COC(=O)OC(C#N)c1cccc([N+](=O)[O-])c1 (configuration not stated)
survivor count (dose: 50.0 mg/kg/injection, schedule: Q01DX009 (ip), vehicle: saline): 6 of 6
survivor count (dose: 200.0 mg/kg/injection, schedule: Q01DX009 (ip), vehicle: saline): 4 of 6

CN1CCC(O)(c2ccccc2)C(Br)C1 (configuration not stated)
T/C [6]: 125 % of control
survivor count [7]: 0 of 6, 1 of 6, 3 of 6

CCc1nc(N)nc(N)c1-c1ccc(Cl)c([N+](=O)[O-])c1
T/C (dose: 1.56 mg/kg/injection, schedule: Q01DX009 (ip), vehicle: distilled water + Tween-80): 125 % of control [5 of 6 alive]
T/C (dose: 6.25 mg/kg/injection, schedule: Q01DX009 (ip), vehicle: distilled water + Tween-80): 147 % of control
survivor count (dose: 12.5 mg/kg/injection, schedule: Q01DX009 (ip), vehicle: distilled water + Tween-80): 6 of 6
survivor count (dose: 25.0 mg/kg/injection, schedule: Q01DX009 (ip), vehicle: distilled water + Tween-80): 6 of 6
survivor count (dose: 50.0 mg/kg/injection, schedule: Q01DX009 (ip), vehicle: distilled water + Tween-80): 4 of 6

O=C(O)c1ccc2cc3ccccc3cc2c1
survivor count [8]: 0 of 6

Nc1ncnc2c1ncn2C1C=C(CO)C(O)C1O (configuration not stated)
T/C (dose: 0.5 mg/kg/injection, schedule: Q01DX009 (ip), vehicle: Klucel (hydroxypropylcellulose) (HPC)): 132 and 133 % of control
T/C (dose: 0.5 mg/kg/injection, schedule: Q01DX009 (ip), vehicle: saline): 143 and 147 % of control
T/C (dose: 1.0 mg/kg/injection, schedule: Q01DX009 (ip), vehicle: Klucel (hydroxypropylcellulose) (HPC)): 129 and 133 % of control
T/C (dose: 1.0 mg/kg/injection, schedule: Q01DX009 (ip), vehicle: saline): 142 % of control
T/C (dose: 2.0 mg/kg/injection, schedule: Q01DX009 (ip), vehicle: Klucel (hydroxypropylcellulose) (HPC)): 127 and 135 % of control
T/C (dose: 2.0 mg/kg/injection, schedule: Q01DX009 (ip), vehicle: saline): 144 % of control
T/C (dose: 4.0 mg/kg/injection, schedule: Q01DX009 (ip), vehicle: saline): 135 % of control
survivor count (dose: 16.0 mg/kg/injection, schedule: Q01DX009 (ip), vehicle: Klucel (hydroxypropylcellulose) (HPC)): 3 of 6
survivor count (dose: 16.0 mg/kg/injection, schedule: Q01DX009 (ip), vehicle: saline): 0 of 6

CNC(C)Cc1ccccc1 (configuration not stated) (tested in a mixture with another compound)
survivor count [9]: 1 of 6
survivor count [10]: 0 of 6

Cc1ccc(C)[nH]1
survivor count (dose: 100.0 mg/kg/injection, schedule: Q01DX001 (ip), vehicle: alcohol): 0 of 6
survivor count (dose: 200.0 mg/kg/injection, schedule: Q01DX001 (ip), vehicle: alcohol): 0 of 6

CCOC(=O)C1(C)CCCC1N (configuration not stated)
survivor count [7]: 1 of 6

C[Si]1(C)CC[Si](C)(C)OS(=O)(=O)O1
survivor count (dose: 110.0 mg/kg/injection, schedule: Q01DX005 (ip), vehicle: Klucel (hydroxypropylcellulose) (HPC)): 3 of 5
survivor count (dose: 212.5 mg/kg/injection, schedule: Q01DX005 (ip), vehicle: Klucel (hydroxypropylcellulose) (HPC)): 2 of 5
survivor count (dose: 425.0 mg/kg/injection, schedule: Q01DX005 (ip), vehicle: Klucel (hydroxypropylcellulose) (HPC)): 0 of 5
survivor count (dose: 850.0 mg/kg/injection, schedule: Q01DX005 (ip), vehicle: Klucel (hydroxypropylcellulose) (HPC)): 0 of 5

Cc1cnc2c(N)cc(C)c(C)c2c1
survivor count (dose: 100.0 mg/kg/injection, schedule: Q01DX009 (ip), vehicle: saline with Tween-80): 1 of 6
survivor count [3]: 0 of 6

COc1cccc2c(NCCCCCCCCNc3c4ccc([N+](=O)[O-])cc4nc4c(OC)cccc34)c3ccc([N+](=O)[O-])cc3nc12
T/C (dose: 1.25 mg/kg/injection, schedule: Q01DX009 (ip), vehicle: other): 147 % of control
T/C (dose: 2.5 mg/kg/injection, schedule: Q01DX009 (ip), vehicle: other): 142 % of control
T/C (dose: 5.0 mg/kg/injection, schedule: Q01DX009 (ip), vehicle: other): 145 % of control
T/C (dose: 20.0 mg/kg/injection, schedule: Q01DX009 (ip), vehicle: other): 147 % of control
T/C (dose: 40.0 mg/kg/injection, schedule: Q01DX009 (ip), vehicle: other): 130 % of control

Cc1c2oc3c(C)ccc(C(=O)NC4C(=O)NC(C(C)C)C(=O)N(C)CC(=O)N(C)CC(=O)N(C)C(C(C)C)C(=O)OC4C)c3nc-2c(C(=O)NC2C(=O)NC(C(C)C)C(=O)N(C)CC(=O)N(C)CC(=O)N(C)C(C(C)C)C(=O)OC2C)c(N)c1=O (configuration not stated)
T/C (dose: 0.05 mg/kg/injection, schedule: Q01DX009 (ip), vehicle: water): 140 % of control

Nc1ccc(CCCCc2ccc(S(=O)(=O)F)cc2Cl)c(Cl)c1
survivor count [11]: 6 of 6

N#CCCCOCCCOCCCOCCCOCCCOCCCC#N
T/C [9]: 130 % of control

COc1cc(O)c(/C=N/NC(=S)NC23CC4CC(CC(C4)C2)C3)c(OC)c1
survivor count (dose: 30.0 mg/kg/injection, schedule: Q01DX005 (ip), vehicle: saline with Tween-80): 5 of 5 and 6 of 6
survivor count [11]: 6 of 6
survivor count [5]: 6 of 6
survivor count (dose: 240.0 mg/kg/injection, schedule: Q01DX005 (ip), vehicle: saline with Tween-80): 6 of 6

CCC(O)c1ccco1 (configuration not stated)
survivor count [9]: 1 of 6
survivor count [10]: 0 of 6

CC(=O)OC(C)C(C)N(C)C (configuration not stated)
survivor count (dose: 400.0 mg/kg/injection, schedule: Q04DX003 (ip), vehicle: saline): 1 of 6
